Assay results published in patent US20020062500A1, “Hypersensitive response eliciting domains and use thereof” (priority 2000, published 2002).
Not every detail of the peptide structures is certain; ends, links or a residue may be inferred. Peptide text beside a SMILES is read from it.

Test system: tobacco leaves (cv. Xanth)
Details: in vivo

Structure (SMILES): CSCC[C@H](NC(=O)[C@H](CCSC)NC(=O)[C@H](CO)NC(=O)[C@H](CCSC)NC(=O)[C@H](CCSC)NC(=O)[C@H](CCSC)NC(=O)[C@H](CCSC)NC(=O)[C@H](CCSC)NC(=O)CNC(=O)[C@@H](NC(=O)[C@H](CC(C)C)NC(=O)[C@H](CC(C)C)NC(=O)CNC(=O)[C@H](C)NC(=O)[C@H](CC(C)C)NC(=O)[C@H](CCC(N)=O)NC(=O)[C@H](CC(N)=O)NC(=O)[C@@H](NC(=O)[C@@H](NC(=O)[C@H](CC(=O)O)NC(=O)[C@H](CC(N)=O)NC(=O)[C@H](CCC(N)=O)NC(=O)[C@H](CC(N)=O)NC(=O)CNC(=O)CNC(=O)CNC(=O)[C@H](CC(C)C)NC(=O)CN)[C@@H](C)O)C(C)C)[C@@H](C)O)C(=O)O [HrpNEa4370] (H-GLGGGNQNDTVNQLAGLLTGMMMMMSMM-OH; N-terminus and C-terminus assumed)
- HR (eliciting concentration): <5 µg/mL
- HR activity (eliciting concentration): + < 5 μg/ml
- HR activity in tobacco: full HR activity
